According to article PMC7862700:
Some of the results follow. The exact form of the protein is not confirmed.

target: T1, ETV4 (UniProt P43268); experiment: DAPPL (digital affinity profiling via proximity ligation, sequencing); settings: 10 mM Tris-HCl pH 7.5, 50 mM NaCl, 1 mM DTT, 4% glycerol, room temperature, 30 min; GST-TFs on glutathione beads, 16-mer random dsDNA library, 0.1% …; high values mean tight binding; double strand, one strand shown; scale: fold enrichment (6-mer frequency, TF over GST control)
T1 sequence: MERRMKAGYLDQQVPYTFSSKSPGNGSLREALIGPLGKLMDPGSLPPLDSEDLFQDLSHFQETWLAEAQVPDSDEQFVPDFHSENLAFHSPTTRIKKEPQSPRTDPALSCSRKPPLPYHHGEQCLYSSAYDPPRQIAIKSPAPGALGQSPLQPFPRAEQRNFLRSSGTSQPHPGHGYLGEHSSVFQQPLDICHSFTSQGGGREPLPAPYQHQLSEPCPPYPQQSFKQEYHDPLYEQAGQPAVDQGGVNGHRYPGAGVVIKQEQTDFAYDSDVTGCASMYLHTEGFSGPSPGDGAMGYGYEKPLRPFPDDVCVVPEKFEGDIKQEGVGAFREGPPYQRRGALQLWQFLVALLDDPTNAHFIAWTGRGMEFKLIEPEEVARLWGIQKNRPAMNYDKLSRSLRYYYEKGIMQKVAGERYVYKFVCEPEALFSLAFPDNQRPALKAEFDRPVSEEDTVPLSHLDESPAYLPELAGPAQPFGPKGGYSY

Sequence | binding signal
CTGTTC | 1.28
TCATGT | 1.13
CGAAAT | 1.02
GAAGTA | 2.15
TGATCC | 1.29
CGTTTC | 1.8
TCTGTA | 1.15
CGCTTG | 1.03
AACACG | 1.19
TCAACA | 1.09
TGGGGT | 1.03
TGTCTT | 1.3
GATATG | 1.13
AACCTG | 1.28
ACCCTT | 1.24
CCACCC | 1.24
CTATTG | 1.34
TCTATA | 1.16
GGGGCT | 1.03
TCACAA | 1.15

A few values from the entries so far.
ACCCTT – binding signal: 1.24
GATATG – binding signal: 1.13
TGGGGT – binding signal: 1.03

Carrying on.

Sequence | binding signal
CATTAT | 1.2
AACTCC | 1.3
CATACA | 1.09
AAACGC | 1.27
TATTGC | 1.43
CTGACA | 1.31
AAGTTC | 1.5
CTGTCC | 1.27
TTCGAG | 1.29
ATGGTC | 1.55
GAATTA | 1.06
CACATC | 1.6
TTTTAT | 1.3
TCTATT | 1.21
ATTAAG | 1.07
CTTGCG | 1.34
CCGAGC | 1.2
CCACTG | 1.27
TCGCCC | 1.36
